According to PubChem BioAssay AID493014 (National Center for Advancing Translational Sciences (NCATS), 2011):
The list shows a part of the results. Further columns of the screen follow, without active or inactive calls. Most of these compounds were active or inconclusive in the main read-out, so they are no random draw. Words in brackets tell the shape of the fitted curve; partial curves, single points and poor fits give uncertain potencies.

Assay: qHTS Assay to Find Inhibitors of Chronic Active B-Cell Receptor Signaling
Conditions: ABC-DLBCL IkBa-CBG/CBR reporter, luminescence ratio (green luciferase fused to IkBa over red control in TMD8 lymphoma cells), 4 h
How it was run: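 Doxycycline induced both beetle luciferases in TMD8 lymphoma cells; IKK-driven degradation limits the IkappaBalpha-fused green signal, while red luminescence normalises for cell number and nonspecific effects. Compounds tested up to 46 uM, 4 hrs.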

[1] = measured here: CBR red luminescence, cell number
[2] = measured here: IkBa-CBG green luminescence

SMILES | AC50 [1] | AC50 [2]
Fc1cc(F)c2nc(Nc3nc4cc5c(cc4s3)OCO5)sc2c1 | 0.13 µM [rising, full curve] | –
Cc1cccc(C(=O)NNC(=O)/C=C/C(=O)O)c1 | 10 µM [falling, partial curve, poor fit] | –
Cc1ccc(SCCC(=O)N2CCOCC2)cc1 | 8.2 µM [falling, partial curve] | –
COc1ccc(NC(=O)C2CCCN2c2ccc(OC)c(OC)c2)cc1OC (stereo unspecified) | 14.1 µM [rising, partial curve] | –
Cc1cc(/C=C2\SC(=O)NC2=O)c(C)n1-c1ccc(N2CCOCC2)cc1 | 35.5 µM [rising, single point] | –
O=[N+]([O-])c1ccc(C2CC(c3ccccc3)=Nc3ccccc3S2)cc1 (stereo unspecified) | 12.6 µM [rising, partial curve] | 25.1 µM [falling, single point]
CC(=O)c1ccc(NC(=O)CCCN2C(=O)/C(=C/C(C)=C/c3ccccc3)SC2=S)cc1 | 23.1 µM [falling, single point] | –
Cc1ncc(CN2CCC(C(=O)Nc3ccc(-n4cccn4)cc3)CC2)s1 | 0.631 µM [rising, full curve, poor fit] | –
CCc1nc(SCC(=O)Nc2ccccc2)c2c(=O)n(C)c(=O)n(C)c2n1 | 0.794 µM [rising, full curve] | –
COc1ccc(C(=O)NCc2c(C)nn(Cc3ccccc3)c2C)cc1S(=O)(=O)N1CCOCC1 | 3.66 µM [rising, full curve, poor fit] | –
COc1ccc2c(=O)c(-c3ccccc3)coc2c1 | 10 µM [falling, partial curve] | –
O=C(c1cccc(C(F)(F)F)c1)N1CCc2c([nH]c3ccccc23)C1C(F)(F)F (stereo unspecified) | 7.08 µM [falling, full curve, poor fit] | –
S=C(NCc1ccccc1)NN1CCOCC1 | 12.6 µM [rising, partial curve, poor fit] | –
COc1ccc(/C=N/NC(=O)CNC(=O)/C=C/c2ccco2)cc1OC | 14.1 µM [rising, partial curve, poor fit] | –
CCC1=C(OC(=O)N(CC)CC)N2C(=O)OC(=NCc3ccccc3)[C@]2(C)[C@H]2C1=CC[C@H]1C(=O)N(CC(=O)OC)C(=O)[C@H]12 | 6.31 µM [falling, single point] | –
CCOC(=O)C1=C(C)N(c2ccc(C)cc2)C(=O)/C1=C\c1ccc(O)c(OC)c1 | 15.8 µM [falling, single point] | –
CCc1ccc2oc(-c3ccc(OC)cc3)cc(=Nc3cccc(C(=O)O)c3)c2c1 | 35.5 µM [falling, single point] | –
COC(=O)CCC(=O)Nc1sc2c(c1C#N)CCCC2 | – | 15.8 µM [falling, single point]
CCOC(=O)Cc1nc2nc(C)cc(C)n2n1 | 14.1 µM [rising, partial curve, poor fit] | –
Cc1cc(NCCCn2ccnc2)n2nc(-c3ccc(F)cc3)cc2n1 | 10.3 µM [falling, partial curve, poor fit] | –
CC(C)C(=O)NCCc1nc2ccccc2n1C | 0.651 µM [falling, full curve] | –

SMILES | AC50 [1] | AC50 [2]
O=C(NCc1ccco1)C(c1ccccc1)N(C(=O)Cc1cccs1)c1ccccc1F (stereo unspecified) | 11.2 µM [falling, partial curve, poor fit] | –
O=c1c(Cl)c(NCc2ccco2)cnn1C12CC3CC(CC(C3)C1)C2 | 22.4 µM [rising, single point] | –
C/C(=N\Nc1ccc(S(N)(=O)=O)cc1[N+](=O)[O-])c1ccc2c(c1)OCO2 | 14.1 µM [rising, partial curve, poor fit] | –
CC(C)(C)NC(=O)c1cc(-c2ccccc2)n[nH]1 | 35.5 µM [falling, single point] | –
CCOC(=O)c1ccccc1NC(=O)CSc1nc2ccccc2o1 | 20 µM [rising, single point] | –
Cc1nc2ccccn2c1C(=O)NN=C1CCCC1 | 3.16 µM [falling, single point] | –
COc1ccccc1-c1cc(C(=O)Nc2c(C)n(C)n(-c3ccccc3)c2=O)no1 | 8.91 µM [falling, partial curve, poor fit] | –
Cn1c(/C=N/c2nc3ccccc3[nH]2)nc2ccccc21 | 25.9 µM [falling, single point] | –
O=C(CSc1nnc(-c2ccco2)o1)N1CCCCC1 | 35.5 µM [falling, single point] | –
Cc1cccc(C(=O)Nc2ccc(C(=O)/C=C/c3ccncc3)cc2)c1 | 12.6 µM [rising, single point] | 35.5 µM [falling, single point]
CC[C@]1(c2ccccc2OC)ON(c2ccccc2C(F)(F)F)C1=O | 32.6 µM [falling, single point] | –
O=C(NC1CCCCC1)c1cc2cc(Br)ccc2o1 | 3.55 µM [falling, partial curve] | –
CCOC(=O)CCc1c(C)nc2ncnn2c1C | 35.5 µM [falling, single point] | –
COc1ccc(OC)c(-c2nn(-c3ccccc3)cc2C(=O)NCC(c2ccco2)N2CCCC2)c1 (stereo unspecified) | 4.11 µM [falling, single point] | –
CC(CCc1ccccc1)NC(=O)C(=O)Nc1ccccc1 (stereo unspecified) | 14.6 µM [falling, partial curve] | –
COc1cc(OC)cc(C(=O)Nc2ccc(S(=O)(=O)Nc3ccccn3)cc2)c1 | 2.51 µM [falling, partial curve, poor fit] | –
O=C1c2ccc3c4c(ccc(c24)C(=O)N1c1cccc(O)c1)C(=O)N(c1cccc(O)c1)C3=O | 10 µM [falling, partial curve, poor fit] | –
COc1cc(NC(=O)C2=CC(c3ccc(C)cc3)=NS(=O)(=O)N2C)cc(OC)c1OC | 35.5 µM [falling, single point] | –
O=C(O)C1Sc2[nH]c(=O)sc2C2c3cc(Br)ccc3OC(=O)C12 (stereo unspecified) | 35.5 µM [rising, single point] | –
CCOC(=O)c1ccc(NC(=O)c2ccc(OC(C)C)c(OC)c2)cc1 | 14.1 µM [falling, single point] | –
CC(=O)NC(Cc1c[nH]c2ccccc12)C(=O)N/N=C/c1ccccc1 (stereo unspecified) | 3.55 µM [rising, partial curve, poor fit] | –

Random excerpt: 5 compounds from above
SMILES | AC50 [1] | AC50 [2]
CCOC(=O)c1ccc(NC(=O)c2ccc(OC(C)C)c(OC)c2)cc1 | 14.1 µM [falling, single point] | –
COc1cc(OC)cc(C(=O)Nc2ccc(S(=O)(=O)Nc3ccccn3)cc2)c1 | 2.51 µM [falling, partial curve, poor fit] | –
Cn1c(/C=N/c2nc3ccccc3[nH]2)nc2ccccc21 | 25.9 µM [falling, single point] | –
O=c1c(Cl)c(NCc2ccco2)cnn1C12CC3CC(CC(C3)C1)C2 | 22.4 µM [rising, single point] | –
COc1ccc(OC)c(-c2nn(-c3ccccc3)cc2C(=O)NCC(c2ccco2)N2CCCC2)c1 (stereo unspecified) | 4.11 µM [falling, single point] | –

(listing goes on)

SMILES | AC50 [1] | AC50 [2]
COCCNC(=S)N(CCc1c(C)[nH]c2ccc(F)cc12)Cc1ccco1 | 20 µM [falling, single point] | –
COc1ccc(CN2CCN(c3ncccn3)CC2)c(OC)c1 | 14.6 µM [rising, single point] | –
CCOc1ccc(N(CC(=O)NCc2ccc3c(c2)OCO3)C(=O)c2csnn2)cc1 | 35.5 µM [falling, single point] | –
CCCCCOC(=O)C1=C(C)Nc2ncnn2C1c1cccs1 (stereo unspecified) | 4.11 µM [falling, partial curve, poor fit] | –
CCOc1ccccc1NC(=O)C1CCC(CNc2c(N3CCCCC3)c(=O)c2=O)CC1 (stereo unspecified) | 0.631 µM [falling, full curve, poor fit] | 0.794 µM [rising, full curve, poor fit]
O=S(=O)(Nc1cccnc1)c1cccs1 | 29.1 µM [falling, single point] | –
COC(=O)N=Nc1c(O)[nH]c2ccc(Br)cc12 | 17.8 µM [falling, partial curve, poor fit] | –
O=C(O)CCC(=O)N1N=C(c2ccc(Br)cc2)CC1c1cccc(Br)c1 (stereo unspecified) | 8.91 µM [falling, single point] | –
CC(C(=O)NC1C=CS(=O)(=O)C1)N1C(=O)/C(=C/c2ccc(Cl)cc2)SC1=S (stereo unspecified) | 11.2 µM [falling, partial curve] | –
COc1ccccc1NC(=S)N(CCc1nc2cc(C)c(C)cc2[nH]1)Cc1cccnc1 | 0.447 µM [falling, partial curve, poor fit] | –
COc1cc2c(=O)n(Cc3ccccc3)c(=O)n(CC(=O)NCC3CCCO3)c2cc1OC (stereo unspecified) | 18.4 µM [falling, partial curve] | –
CC(C)N(Cc1cn[nH]c1-c1ccc(-c2ccccc2)cc1)Cc1nccn1C | 35.5 µM [falling, single point] | –
Cc1ccccc1NC(=O)NCCCN1CCN(c2ccccc2)CC1 | 23.1 µM [rising, partial curve, poor fit] | –
Cc1c(NC(=S)N/N=C/c2ccc(Br)cc2)c(=O)n(-c2ccccc2)n1C | 0.708 µM [falling, partial curve] | –
COc1cc(CN2CCc3ccccc3C2)cc([N+](=O)[O-])c1O | 11.2 µM [rising, partial curve] | –
Cc1ccc2oc(-c3ccc(NC(=O)c4ccncc4)cc3O)nc2c1 | 0.562 µM [rising, full curve, poor fit] | –
O=C(NCCCCc1ccccc1)c1ccccc1F | 10 µM [falling, partial curve, poor fit] | –
CC(C)NS(=O)(=O)c1ccc(OCC(=O)Nc2ccc3c(c2)OCO3)c(Cl)c1 | 0.082 µM [rising, full curve, poor fit] | –
C/C(CC(=O)Nc1ccc(C)c(Cl)c1)=N\NC(=O)c1ccco1 | 11.2 µM [falling, partial curve, poor fit] | –
CC(C)(C)c1cc(NC(=O)C2CCCO2)no1 (stereo unspecified) | 0.517 µM [rising, full curve, poor fit] | –
CS(=O)(=NS(=O)(=O)c1ccc(Cl)cc1)c1ccccc1 (stereo unspecified) | 15.8 µM [rising, partial curve, poor fit] | –
